Data as given in PubChem BioAssay AID1159584 (Peter MacCallum Cancer Centre, 2016)

Screen: 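Genes that CDH1-null MCF10A cells selectively depend on to survive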 (primary screen)
Cell system: human MCF10A breast epithelial cells, parental and CDH1-null
Reagents: siRNA against human genes
Measured: 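ATP luminescence (CellTiter-Glo) viability per line relative to mean mock wells over all plates, and the ratio of CDH1-null to parental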
Scale: CDH1-null / parental viability ratio: higher = CDH1-null cells survive relatively better than parental
Shown is an unselected part of about 18,000 reagents. Further read-outs or replicates are left out here. Not given: the amount of reagent, the time to read-out.

What is on record for VCX3B (GeneID 425054) [SID152155364]?
CDH1-null / parental viability ratio: 0.85

What is on record for NDUFC1 (GeneID 4717) [SID135623784]?
CDH1-null / parental viability ratio: 1.08

Which result is listed for S100A11 (GeneID 6282) [SID134316430]?
CDH1-null / parental viability ratio: 0.98

What is on record for TADA3 (GeneID 10474) [SID134321441]?
CDH1-null / parental viability ratio: 0.85

What did the screen give for HACD3 (GeneID 51495) [SID135621982]?
CDH1-null / parental viability ratio: 0.87

How did the screen score EMC10 (GeneID 284361) [SID135623525]?
CDH1-null / parental viability ratio: 1.11

What did the screen give for TXLNGY (GeneID 246126) [SID135622847]?
CDH1-null / parental viability ratio: 1.06

How did the screen score TXLNGY (GeneID 246126) [SID152152723]?
CDH1-null / parental viability ratio: 0.74

For LIME1 (GeneID 54923) [SID135624061], how do the results read?
CDH1-null / parental viability ratio: 0.9

What is on record for PLEKHG2 (GeneID 64857) [SID135624396]?
CDH1-null / parental viability ratio: 0.65

For SAE1 (GeneID 10055) [SID134311772], what does the deposit list?
CDH1-null / parental viability ratio: 0.92

For GNPDA1 (GeneID 10007) [SID152152004], what was measured?
CDH1-null / parental viability ratio: 0.98

For HAUS8 (GeneID 93323) [SID152152451], how do the results read?
CDH1-null / parental viability ratio: 1.02

Which result is listed for FBXO48 (GeneID 554251) [SID152149609]?
CDH1-null / parental viability ratio: 1.13
